In all, about 6,900 compounds went through this assay and fewer than 10 were called active. Calls follow the shape of the dose curve; as a rule, active = well fitted curve in the direction sought with a large enough effect; inconclusive = small, poorly fitted or top-dose-only effect, or another doubt; inactive = no such curve, though single readings can be large or run the other way. The list shows a part of the results.
molecular target: Metallo-beta-lactamase type 2 (Klebsiella pneumoniae) (UniProt C7C422); assay: qHTS to identify inhibitors of the New Delhi Metallo-beta-lactamase (NDM): primary screen against the NCATS Gemini Collection; conditions: NDM-1 enzyme, meropenem hydrolysis, absorbance 300 nm; at 38.4 µM (top of the series) unless noted; also: % of control where 0% means no effect
How it was run: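 Meropenem hydrolysis (50 uM final) by 2 nM NDM-1 read as 300 nm absorbance after 30 min, following >30 min compound–enzyme preincubation in HEPES pH 7.0 with 1 uM ZnSO4 and 0.01% Tween20.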

Protein sequences, listed by entry. Tags and fused reporters are not part of them. Lines headed by an entry give the natural chain unless they say otherwise; changes in a name come on top.
UniProt C7C422: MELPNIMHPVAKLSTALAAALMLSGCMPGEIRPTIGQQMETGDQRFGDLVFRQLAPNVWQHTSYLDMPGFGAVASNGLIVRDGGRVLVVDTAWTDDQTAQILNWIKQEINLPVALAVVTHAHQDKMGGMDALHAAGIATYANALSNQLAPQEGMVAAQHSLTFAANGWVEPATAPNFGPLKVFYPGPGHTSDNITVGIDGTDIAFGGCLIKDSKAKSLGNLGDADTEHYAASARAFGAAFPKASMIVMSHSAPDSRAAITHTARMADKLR

Activity % (negative = inhibition), inactive:
Cc1cnc(C(=O)N2CC[C@H](CO)[C@H](NC(=O)C3CC3)C2)cn1 1.17%, CNC(=O)c1cccc(-c2cnc3[nH]cc(CC(=O)Nc4ccccc4Cl)c3c2)c1 16.7% [at 57.5 µM], CCN(C1CCOCC1)C1CN(C(=O)C2CCCCC2)C1 1.58%, Cc1cnc(C2CCC2)n1C1CCN(C(=O)CCC2CCCC2)CC1 -0.292%, O=[S+]([O-])(c1ccccc1)N1CCCC2(CC(c3cccc(C(F)(F)F)c3)=NO2)C1 (stereo unspecified) 0.407%, CN1CCN(Cc2nnc(C3CCN(C(=O)C4(N)CC4)CC3)n2C)CC1 40.7%, CC(C)N1C[C@H](O)C[C@H]1c1nnc2n1CCN(C(=O)CCc1c[nH]c3ccccc13)CC2 16.5%, O=c1cc(-c2cccnc2)oc2c(-c3cn[nH]c3)nccc12 4.07% [at 77.1 µM], O=C(c1cccnc1)N1CCC12Cc1ccccc1NC2=O (stereo unspecified) 2.35% [at 57.5 µM], CCC(=O)N1CCCCCCNC(=O)[C@@H]2C[C@@H](C(=O)N3CCN(c4ccccn4)CC3)C[C@@H]21 17.9%, COc1cccc(CC(=O)N[C@@H]2CN(c3ncccn3)C[C@H]2CO)c1 13.5%, CS(=O)(=O)N1C[C@H]2CCN(C(=O)c3cc(F)ccc3F)C[C@H]21 31.1%, COc1cc(CNCc2ccccc2C)ccc1OCC(O)CN1CCC(O)CC1 (stereo unspecified) -1.14%, CN(C)C[C@@H]1CN(C2CCOCC2)C[C@H]1NC(=O)Cc1ccccc1Cl 0.861%, O=C(NC[C@H]1O[C@@H](CC(=O)N2CCN(c3ccccn3)CC2)[C@H](O)[C@@H]1O)c1ccco1 0.625% [at 57.5 µM], Cn1cc(-c2nc(N3CCOCC3)cc3c2CN(CC2CC2)C3=O)cn1 3.84% [at 57.5 µM], O=C(N[C@H](C1CCNCC1)C1CC(O)C1)c1ccc2nccnc2c1 (stereo partly specified) 28.9%, O=C(NC1CCN(c2ccc3nnc(-c4ccccc4)n3n2)CC1)C1CCCC1 8.3%, Cc1cc(C(=O)N2CCCCCC2CN2CCC(C)CC2)nn1C (stereo unspecified) -0.739%, Cc1noc(C)c1-c1cnc(Nc2ccc(CN3CCN(C)CC3)cc2)c2c1CCO2 9.84% [at 57.5 µM], CCN(Cc1ccncc1)C(=O)c1coc(COc2cccc(C(F)(F)F)c2)n1 0.141%, Cc1nnsc1C(=O)N[C@H]1CCN(C(=O)c2ccco2)[C@H](C(=O)N[C@H](Cc2c[nH]c3ccccc23)C(N)=O)C1 -8.65%, O=C(NCCc1ccccc1)N1CC(c2noc(C3CCCN3CC3CC3)n2)C1 (stereo unspecified) -2.11%, O=C(c1coc(COc2ccc(F)cc2)n1)N1CCC(c2ccc(F)cc2)C1 (stereo unspecified) 35.2%, O=C(NCC1CCOC1)C1CCN(c2nc(-c3ccccc3)nc3c2CCC3)CC1 (stereo unspecified) 0.217%, CC(=O)N1CCN(C(=O)c2ccc3oc(-c4cccnc4C)nc3c2)CC1 14.2% [at 57.5 µM], Cn1ccnc1CN[C@@H]1C[C@H](CO)[C@@H](O)[C@H]1O -3.35% [at 77.1 µM], CCCc1nnc([C@H]2CCN(C(=O)c3ccccc3)C2)o1 4.06% [at 77.1 µM], O=C1NC2(Cc3ccccc31)CN(C(=O)c1ccccc1Cl)C2 0.425%, CCCCS(=O)(=O)N1C[C@@H](C(N)=O)[C@H](C2CCN(C)CC2)C1 -2.68%, O=C(O)c1cc2c(s1)CCN(C(=O)c1ccc(F)cc1)C2 0.29%, COCCc1nncn1C1CCN(C(=O)c2ccc(C)s2)CC1 6.57%, O=C(c1nc2c(o1)CCN(Cc1cccc(F)c1)CC2)N1CCOCC1 6.03% [at 57.5 µM], O=C(NCC1CCN(c2cc(-c3ccc(Cl)cc3)[nH]n2)CC1)c1ccc(=O)[nH]c1 14.3%, O=c1cc(-c2cccnc2)oc2c(NCc3ccc(F)cc3)nccc12 12.8% [at 57.5 µM], COc1ccc(C(=O)N2CC(CO)C3(CCNCC3)C2)cc1 (stereo unspecified) 1.56%, Cc1ccc(CNC(=O)C2CCCN(c3cnn(Cc4ccccc4)c(=O)c3)C2)o1 (stereo unspecified) 0.686%, O=C(NC1CC1)[C@@H]1C[C@H](Oc2cccnc2)CN1C(=O)c1ccccn1 -0.158%, COc1ccccc1CN[C@H]1CC(C)(C)[C@@H]2C[C@@](C)(O)CC[C@]12CCC(=O)NCCc1c[nH]c2ccccc12 1.27%, CN(c1ccccc1)S(=O)(=O)C1CCS(=O)(=O)C1 (stereo unspecified) 0.0041%, O=c1cc(N2CCOCC2)oc2c(N3CCN(c4ccccn4)CC3)nccc12 6.49% [at 57.5 µM], COCC1(CNS(=O)(=O)c2ccc(Cl)cc2)C[C@@H](O)[C@@H](O)C1 (stereo partly specified) 7.96% [at 57.5 µM], CCNc1ncc(C(=O)N[C@H](C2CCNCC2)C2CC(O)C2)cn1 (stereo partly specified) 21.5%, CC[C@@]1(C(=O)O)C[C@H](C(=O)N(C)CCO)[C@H](c2ccc(F)cc2)N1C 3.26%, O=C1NC2(CCN(Cc3ccsc3)C2)COc2ccccc21 (stereo unspecified) 2.92% [at 57.5 µM], O=C(c1ccc[nH]c1=O)N1CC(F)(F)C[C@H]1c1nc(C2CC2)no1 16.2%, Cc1nn2c(c1-c1ccccc1Oc1ccccc1)N(C(=O)c1cccc(C#N)c1)CCC2 4.65% [at 57.5 µM], COCc1nncn1C1CCN(S(=O)(=O)c2ccc(Br)cc2)CC1 0.872%, O=C1[C@H]2CN(Cc3c[nH]c4ccccc34)C[C@H]2C(=O)N1CCc1ccccc1 -3.06%, CCn1c(CN(C)C)nnc1C1CCN(Cc2ccc(-n3ccnc3)cc2)CC1 -0.901%, COCc1ncc(C)n1CC1CCN(C(=O)C2(c3ccc(OC)cc3)CC2)CC1 -6.4%, O=C(C[C@@H]1CCNC[C@@H]1Cc1cc(CC2CCCCC2)on1)NC1CCCCC1 1.72% [at 57.5 µM], Cc1cnc(C2CCNC2)n1Cc1ccccc1 (stereo unspecified) 8.99%, COCCn1c(C)cnc1CC1CCCN(S(=O)(=O)c2cccc(F)c2)C1 (stereo unspecified) 7.14%, COCCN(C)C[C@H]1C[C@H](CO)CN(C(=O)c2cc3ccccc3s2)C1 14.6%, O=S(=O)(NCCc1noc(-c2ccccc2)n1)c1ccc(Cl)cc1 0.742%, CSCc1ccc(C(=O)N2CCN(c3ccc(C)cc3)C(=O)C2)o1 42.7%, COCc1noc(CCNC(=O)C2CC3(CCNCC3)CN2)n1 (stereo unspecified) 7.45%, O=C(c1ccco1)N1c2ccccc2CC1c1nnc(C2CCOCC2)o1 (stereo unspecified) 12.2%, COCC1CN(C)CC12CCN(S(=O)(=O)Cc1ccc(F)cc1)CC2 (stereo unspecified) -8.48%, CCS(=O)(=O)N1CCCCCCNC(=O)[C@@H]2C[C@@H](C(=O)N3CCc4ccccc4C3)C[C@@H]21 5.38%, O=C(O)C[C@@H]1CCN(C(=O)C2CCCC2)C[C@@H]1CCN1CCCCC1 19.5% [at 57.5 µM], COc1cccc(COC2CN(C(=O)CCn3nccc3C)CC(=O)N(Cc3ccccn3)C2)c1 (stereo unspecified) 7.64%, COc1cc(F)ccc1-c1nccc2c(=O)cc(-c3cnn(C)c3)oc12 5.26% [at 57.5 µM], Cc1ccc(CNC(=O)Nc2cnc3c(c2)CCC3)cc1 6.86%, CN(C)C[C@@H]1CN(S(C)(=O)=O)C[C@H]1NC(=O)c1ccc(Cl)s1 6.59%, CC(C)N[C@@H]1CO[C@H](CNC(=O)c2ccccc2)[C@H]1O -8.28% [at 77.1 µM], CCCNC(=O)C1C(c2ccc(NC(=O)c3ccco3)cc2)OC(=O)N1Cc1ccccc1 (stereo unspecified) 2.91%, CN1CCN([C@H]2[C@@H]3OC[C@@H](O3)[C@@H](NCc3ccc(-c4ccccc4)cc3)[C@@H]2O)CC1 0.426% [at 57.5 µM], COc1ccc(-c2ccccc2C(=O)N2CCCC2)nn1 6.81% [at 57.5 µM], O=C(O)C[C@@H]1CCN(C(=O)Nc2ccc(C(F)(F)F)cc2)C[C@@H]1CCN1C[C@@H]2C[C@H](C1)c1cccc(=O)n1C2 4.52%, Cc1cccc2c1O[C@H]1[C@H](CO)CN([S+](=O)([O-])c3cccs3)[C@@H]21 4.48%, CN(C(=O)CC(c1ccccc1)c1ccc(Cl)cc1)C1CCOCC1 (stereo unspecified) -0.087%, O=C(NCCc1nccs1)c1cn(CCN2CCNCC2)nn1 1.04%, NC(=O)[C@@H](Cc1c[nH]c2ccccc12)NC(=O)[C@@H]1C[C@@H](NS(=O)(=O)c2cccs2)CCN1C(=O)[C@@H](O)[C@H](O)C(=O)O 1.91%, CCc1csc(CNC(=O)c2ccc(N(C)Cc3cnn(C)c3)nc2)n1 12.2%, CCC1Oc2ccc(NS(=O)(=O)c3ccc(Cl)cc3)cc2CN(Cc2ccc(F)cc2)C1=O (stereo unspecified) 10.7%, CCNc1ncnc2sc3c(c12)CCN(C(=O)COC)C3 10.2%, CC[C@H]1CN(C(C)=O)CC[C@H]1CC(=O)Nc1ccccc1 -5.07% [at 77.1 µM], COc1ccc(-c2cc(-c3ccncc3)cn3cncc23)cc1 2.77% [at 57.5 µM], O=C([C@@H]1C[C@H](F)CN1S(=O)(=O)Cc1ccccc1F)N1CCc2ccccc2C1 4.95%
